At least one compound was matched to its structure with a doubt left.
Target: recombinant rabbit GSK-3β (Oryctolagus cuniculus, UniProt G1T8E2)
Test: In vitro GSK-3 inhibition assay with PGS-1 peptide substrate
Format: biochemical
Conditions: preliminary inhibition assay, FIG. 5
Experimental: In vitro inhibition assays: Purified recombinant rabbit GSK-3β (Eldar-Finkelman et al., 1996) was incubated with peptide substrate PGS-1 ([…](p)EDEEE) (SEQ ID NO:1) or peptide substrate p9CREB (SEQ ID NO:2) and with phenyl phosphate, pyridoxal phosphate (P-5-P), GSC-1, GSC-2, GSC-3, GSC-4, GSC-5, GSC-6, GSC-7 or GSC-21 (structural formulas are depicted in FIG. 3), at indicated concentrations. The reaction mixture included Tris 50 mM (pH=7.3), 10 mM MgAc, ^32P[γ-ATP] (100 μM), 0.01% β-mercaptoethanol, and was incubated for 10 minutes at 30° C. Reactions were spotted on phosphocellulose paper (p81), washed with 100 mM phosphoric acid, and counted for radioactivity (as described in Eldar-Finkelman et al., 1996).
In vitro inhibition assays: In a preliminary inhibition assay, the GSK-3 inhibition activity of the known compounds phenyl phosphate, pyridoxal phosphate, GSC-1, GSC-2 and GSC-3 was tested as described hereinabove.
In an additional inhibition assay, the GSK-3 inhibition activity of GSC-1, GSC-2, GSC-3, GSC-4, and GSC-21 was tested. The ability of GSK-3 to phosphorylate PGS-1 peptide substrate was measured in the presence of indicated concentrations of these compounds. […]

By UniProt entry, the sequences of proteins in these tests, tags left out. Residues count along the entry.
UniProt G1T8E2, 1-432: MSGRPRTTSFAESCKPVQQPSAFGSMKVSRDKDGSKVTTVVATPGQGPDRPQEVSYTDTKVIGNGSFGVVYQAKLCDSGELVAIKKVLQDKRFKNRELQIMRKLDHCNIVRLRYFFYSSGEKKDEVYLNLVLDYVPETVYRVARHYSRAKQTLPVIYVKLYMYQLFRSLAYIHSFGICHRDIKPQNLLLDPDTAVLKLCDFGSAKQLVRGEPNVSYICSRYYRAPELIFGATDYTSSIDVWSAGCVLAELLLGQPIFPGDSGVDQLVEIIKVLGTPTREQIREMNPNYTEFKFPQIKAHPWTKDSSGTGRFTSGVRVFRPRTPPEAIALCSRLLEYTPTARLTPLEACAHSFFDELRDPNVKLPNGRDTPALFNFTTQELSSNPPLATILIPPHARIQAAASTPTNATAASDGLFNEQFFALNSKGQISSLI

| Structure (SMILES) | GSK-3 inhibition activity |
| --- | --- |
| O=P(O)(O)OCc1ccccc1 [GSC-1, benzyl phosphate] | exerted an inhibition activity |
| O=P(O)(O)OCc1cccnc1 [GSC-3, 3-pyridylmethyl phosphate] | exerted an inhibition activity |
